# Source: the supplement of paper PMC8728848
# This is one part of the list.
# How the values were obtained:
# Experiment in all cases: glycan array binding signal (z-score within array); higher = stronger binding
# Details in all cases: glycan notation: IUPAC condensed, linker removed
# [1] = biological target: Fuc(a1-2)Gal(b1-4)GlcNAc(b1-3)Gal(b1-4)GlcNAc(b1-2)Man(a1-3)[Fuc(a1-2)Gal(b1-4)GlcNAc(b1-3)Gal(b1-4)GlcNAc(b1-2)Man(a1-6)]Man(b1-4)GlcNAc(b1-4)GlcNAc
# Summary of the method: (§1)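 Glycan array binding is given as a within-array Z-score, which can be read as non-binding when negative. The arrays, 3228 of them, came from the Consortium for Functional Glycomics database and were retained only where the protein sequence was available. Z-scores were averaged across arrays of the same protein sequence at different concentrations or buffers and across linkers.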
# [2] = biological target: Fuc(a1-2)Gal(b1-4)GlcNAc(b1-3)Gal(b1-4)GlcNAc(b1-3)Gal(b1-4)GlcNAc
# Summary of the method: as §1
# [3] = biological target: Fuc(a1-2)Gal(b1-4)GlcNAc(b1-3)GalNAc
# Summary of the method: as §1
# [4] = biological target: Fuc(a1-2)Gal(b1-4)GlcNAc(b1-3)[Fuc(a1-2)Gal(b1-4)GlcNAc(b1-6)]GalNAc
# Summary of the method: as §1
# [5] = biological target: Fuc(a1-2)Gal(b1-4)GlcNAc(b1-3)[Fuc(a1-3)[Gal(b1-4)]GlcNAc(b1-6)]Gal(b1-4)Glc
# Summary of the method: as §1
# [6] = biological target: Fuc(a1-2)Gal(b1-4)GlcNAc(b1-6)GalNAc
# Summary of the method: as §1
# [7] = biological target: Fuc(a1-2)Gal(b1-4)GlcNAc6S
# Summary of the method: as §1
# [8] = biological target: Fuc(a1-2)Gal(b1-4)[Fuc(a1-3)]GlcNAc
# Summary of the method: as §1
# [9] = biological target: Fuc(a1-2)Gal(b1-4)[Fuc(a1-3)]GlcNAc(b1-2)Man(a1-3)[Fuc(a1-2)Gal(b1-4)[Fuc(a1-3)]GlcNAc(b1-2)Man(a1-6)]Man(b1-4)GlcNAc(b1-4)[Fuc(a1-6)]GlcNAc
# Summary of the method: as §1
# [10] = biological target: Fuc(a1-2)Gal(b1-4)[Fuc(a1-3)]GlcNAc(b1-2)[Fuc(a1-2)Gal(b1-4)[Fuc(a1-3)]GlcNAc(b1-4)]Man(a1-3)[Fuc(a1-2)Gal(b1-4)[Fuc(a1-3)]GlcNAc(b1-2)Man(a1-6)]Man(b1-4)GlcNAc(b1-4)GlcNAc
# Summary of the method: as §1
# [11] = biological target: Fuc(a1-2)Gal(b1-4)[Fuc(a1-3)]GlcNAc(b1-3)Gal(b1-4)[Fuc(a1-3)]GlcNAc
# Summary of the method: as §1
# [12] = biological target: Fuc(a1-2)Gal(b1-4)[Fuc(a1-3)]GlcNAc(b1-3)Gal(b1-4)[Fuc(a1-3)]GlcNAc(b1-3)Gal(b1-4)[Fuc(a1-3)]GlcNAc
# Summary of the method: as §1
# [13] = biological target: Fuc(a1-2)Gal(b1-4)[Fuc(a1-3)]GlcNAc(b1-3)GalNAc
# Summary of the method: as §1
# [14] = biological target: Fuc(a1-2)Gal(b1-4)[Fuc(a1-3)]GlcNAc(b1-3)[Neu5Ac(a2-6)Gal(b1-4)GlcNAc(b1-6)]Gal(b1-4)Glc
# Summary of the method: as §1
# [15] = biological target: Fuc(a1-2)Gal3S(b1-4)GlcNAc
# Summary of the method: as §1
# [16] = biological target: Fuc(a1-2)Gal6S(b1-3)GlcNAc
# Summary of the method: as §1
# [17] = biological target: Fuc(a1-2)Gal6S(b1-3)GlcNAc6S
# Summary of the method: as §1
# Fuc(a1-2)Gal6S(b1-4)Glc = biological target: Fuc(a1-2)Gal6S(b1-4)Glc
# Summary of the method: as §1
# [18] = biological target: Fuc(a1-2)Gal6S(b1-4)Glc6S
# Summary of the method: as §1
# Fuc(a1-2)[Gal(a1-3)]Gal = biological target: Fuc(a1-2)[Gal(a1-3)]Gal
# Summary of the method: as §1
# [19] = biological target: Fuc(a1-2)[Gal(a1-3)]Gal(b1-3)GalNAc
# Summary of the method: as §1
# [20] = biological target: Fuc(a1-2)[Gal(a1-3)]Gal(b1-3)GalNAc(b1-3)Gal(a1-4)Gal(b1-4)Glc
# Summary of the method: as §1
# [21] = biological target: Fuc(a1-2)[Gal(a1-3)]Gal(b1-3)GlcNAc
# Summary of the method: as §1
# [22] = biological target: Fuc(a1-2)[Gal(a1-3)]Gal(b1-3)GlcNAc(b1-2)Man(a1-3)[Fuc(a1-2)[Gal(a1-3)]Gal(b1-3)GlcNAc(b1-2)Man(a1-6)]Man(b1-4)GlcNAc(b1-4)GlcNAc
# Summary of the method: as §1
# [23] = biological target: Fuc(a1-2)[Gal(a1-3)]Gal(b1-3)GlcNAc(b1-2)Man(a1-3)[Fuc(a1-2)[Gal(a1-3)]Gal(b1-3)GlcNAc(b1-2)Man(a1-6)]Man(b1-4)GlcNAc(b1-4)[Fuc(a1-6)]GlcNAc
# Summary of the method: as §1
# [24] = biological target: Fuc(a1-2)[Gal(a1-3)]Gal(b1-3)GlcNAc(b1-3)GalNAc
# Summary of the method: as §1
# [25] = biological target: Fuc(a1-2)[Gal(a1-3)]Gal(b1-3)GlcNAc(b1-6)GalNAc
# Summary of the method: as §1
# [26] = biological target: Fuc(a1-2)[Gal(a1-3)]Gal(b1-4)Glc
# Summary of the method: as §1
# [27] = biological target: Fuc(a1-2)[Gal(a1-3)]Gal(b1-4)GlcNAc
# Summary of the method: as §1
# [28] = biological target: Fuc(a1-2)[Gal(a1-3)]Gal(b1-4)GlcNAc(b1-2)Man
# Summary of the method: as §1
binder,measurement,setting,value
"OS9-MRH (Homo sapiens), Q13438 (protein) IPELLSPMRDAPCLLKTKDWWTYEFCYGRHIQQYHMEDSEIKGEVLYLGYYQSAFDWDDETAKASKQHRLKRYHSQTYGNGSKCDLNGRPREAEVRFLCDEGAGISGDYIDRVDEPLSCSYVLTIRTPRLCPHPLLRPPPSAAPQAI",glycan array binding signal (z-score),[1],-0.256
same,glycan array binding signal (z-score),[2],0.125
same,glycan array binding signal (z-score),[3],-1.17
same,glycan array binding signal (z-score),[4],-0.382
same,glycan array binding signal (z-score),[5],1.16
same,glycan array binding signal (z-score),[6],-0.896
same,glycan array binding signal (z-score),[7],2.76
same,glycan array binding signal (z-score),[8],-0.709
same,glycan array binding signal (z-score),[9],1.33
same,glycan array binding signal (z-score),[10],1.22
same,glycan array binding signal (z-score),[11],-0.02
same,glycan array binding signal (z-score),[12],-0.298
same,glycan array binding signal (z-score),[13],-0.589
same,glycan array binding signal (z-score),[14],1.26
same,glycan array binding signal (z-score),[15],-1.59
same,glycan array binding signal (z-score),[16],-0.833
same,glycan array binding signal (z-score),[17],-0.021
same,glycan array binding signal (z-score),Fuc(a1-2)Gal6S(b1-4)Glc,-0.494
same,glycan array binding signal (z-score),[18],1.94
same,glycan array binding signal (z-score),Fuc(a1-2)[Gal(a1-3)]Gal,-0.286
same,glycan array binding signal (z-score),[19],-0.186
same,glycan array binding signal (z-score),[20],-1.8
same,glycan array binding signal (z-score),[21],1.15
same,glycan array binding signal (z-score),[22],0.925
same,glycan array binding signal (z-score),[23],-0.383
same,glycan array binding signal (z-score),[24],-1.21
same,glycan array binding signal (z-score),[25],0.729
same,glycan array binding signal (z-score),[26],0.701
same,glycan array binding signal (z-score),[27],0.493
same,glycan array binding signal (z-score),[28],0.31

# Taken from above (2 entries):
binder,measurement,setting,value
"OS9-MRH (Homo sapiens), Q13438 (protein) IPELLSPMRDAPCLLKTKDWWTYEFCYGRHIQQYHMEDSEIKGEVLYLGYYQSAFDWDDETAKASKQHRLKRYHSQTYGNGSKCDLNGRPREAEVRFLCDEGAGISGDYIDRVDEPLSCSYVLTIRTPRLCPHPLLRPPPSAAPQAI",glycan array binding signal (z-score),[14],1.26
same,glycan array binding signal (z-score),[15],-1.59
